Laboratory results: article PMC10192437
These are yes or no findings as the source states them, for the method shown. In cells and extracts the contact can be indirect. A yes stands for co-enrichment or nearness to the bait. Other partners may have been found.

Target: T1, mesoderm-specific transcript (MEST) (UniProt Q5EB52)
T1 sequence: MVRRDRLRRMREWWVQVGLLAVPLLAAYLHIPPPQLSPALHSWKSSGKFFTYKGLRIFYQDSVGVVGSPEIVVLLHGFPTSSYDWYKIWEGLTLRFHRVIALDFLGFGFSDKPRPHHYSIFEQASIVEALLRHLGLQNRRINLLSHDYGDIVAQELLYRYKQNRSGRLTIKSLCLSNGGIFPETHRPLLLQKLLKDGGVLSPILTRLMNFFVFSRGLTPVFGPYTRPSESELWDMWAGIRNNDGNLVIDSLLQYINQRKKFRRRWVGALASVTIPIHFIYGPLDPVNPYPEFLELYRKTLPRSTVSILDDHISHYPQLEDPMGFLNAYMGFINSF
Assay: affinity purification with mass spectrometry; immunoprecipitation coupled with liquid chromatography tandem mass spectrometry (IP-MS) to identify the interacting partners of MEST

binding: binds
B1: purine rich element binding protein A (PURA) (protein, UniProt Q00577 1-322)
chain: MADRDSGSEQGGAALGSGGSLGHPGSGSGSGGGGGGGGGGGGSGGGGGGAPGGLQHETQELASKRVDIQNKRFYLDVKQNAKGRFLKIAEVGAGGNKSRLTLSMSVAVEFRDYLGDFIEHYAQLGPSQPPDLAQAQDEPRRALKSEFLVRENRKYYMDLKENQRGRFLRIRQTVNRGPGLGSTQGQTIALPAQGLIEFRDALAKLIDDYGVEEEPAELPEGTSLTVDNKRFFFDVGSNKYGVFMRVSEVKPTYRNSITVPYKVWAKFGHTFCKYSEEMKKIQEKQREKRAACEQLHQQQQQQQEETAAATLLLQGEEEGEED
